These are yes or no findings as the source states them, for the method shown. In cells and extracts the contact can be indirect. Some binding calls cover weakened binding; strength is not graded here.
Target: T1, B-cell receptor-associated protein 31 (BAP31) (human (endogenous in MKN-45)) (UniProt P51572)
T1 sequence: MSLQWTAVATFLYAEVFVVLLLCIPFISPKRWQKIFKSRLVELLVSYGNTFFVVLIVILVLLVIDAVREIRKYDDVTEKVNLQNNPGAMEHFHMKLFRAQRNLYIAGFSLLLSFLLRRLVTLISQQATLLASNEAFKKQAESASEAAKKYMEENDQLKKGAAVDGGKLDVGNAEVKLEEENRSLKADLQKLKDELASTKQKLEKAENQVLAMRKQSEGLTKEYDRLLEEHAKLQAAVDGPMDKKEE
Assay: co-IP; immunoprecipitation with anti-BAP31 monoclonal antibody (7A3BB6) from enriched membrane proteins of MKN-45 lysate, 1% Nonidet P 40, 150 mM NaCl, 50 mM Tris-HCl pH 7.4, 4 °C; blot for EpCAM; compared to preimmune IgG

binding: binds
B1: epithelial cell-adhesion molecule (EpCAM) (protein, UniProt P16422 24-314)
chain: QEECVCENYKLAVNCFVNNNRQCQCTSVGAQNTVICSKLAAKCLVMKAEMNGSKLGRRAKPEGALQNNDGLYDPDCDESGLFKAKQCNGTSMCWCVNTAGVRRTDKDTEITCSERVRTYWIIIELKHKAREKPYDSKSLRTALQKEITTRYQLDPKFITSILYENNVITIDLVQNSSQKTQNDVDIADVAYYFEKDVKGESLFHSKKMDLTVNGEQLDLDPGQTLIYYVDEKAPEFSMQGLKAGVIAVIVVVVIAVVAGIVVLVISRKKRMAKYEKAEIKEMGEMHRELNA

From article PMC10572819
